Reference: patent US20240075152A1
No constants are given. Whether binding was seen depends on the method and setting. Some binding calls cover weakened binding; strength is not graded here. Where a sequence is shown, tags or fusion partners need not be part of it.

What was measured:
[1] = biological target: GCN4-p2L variant (trimeric variant of GCN4 peptide with N-terminal NTA and C-terminal His2), assembled into hexagonal 3D crystals with Zn2+; experiment: both strategies combined, confocal fluorescence
[2] = biological target: GCN4-p2L variant (trimeric variant of GCN4 peptide with N-terminal NTA and C-terminal His2), assembled into hexagonal 3D crystals with Zn2+; experiment: preformed crystals treated with NiCl2, confocal fluorescence
[3] = biological target: GCN4-p2L variant (trimeric variant of GCN4 peptide with N-terminal NTA and C-terminal His2), assembled into hexagonal 3D crystals with Zn2+; experiment: inclusion during crystal growth, confocal fluorescence

Measured: binding

HHHHHH (fluorescein label (position not given)) [fluorescein-labeled His6 (Fl-His6)]
binds: all assays above
